Some of the results follow.

Protein sequences, listed by entry. Tags and fused reporters are not part of them. Lines headed by an entry give the natural chain unless they say otherwise; changes in a name come on top.
UniProt O75116: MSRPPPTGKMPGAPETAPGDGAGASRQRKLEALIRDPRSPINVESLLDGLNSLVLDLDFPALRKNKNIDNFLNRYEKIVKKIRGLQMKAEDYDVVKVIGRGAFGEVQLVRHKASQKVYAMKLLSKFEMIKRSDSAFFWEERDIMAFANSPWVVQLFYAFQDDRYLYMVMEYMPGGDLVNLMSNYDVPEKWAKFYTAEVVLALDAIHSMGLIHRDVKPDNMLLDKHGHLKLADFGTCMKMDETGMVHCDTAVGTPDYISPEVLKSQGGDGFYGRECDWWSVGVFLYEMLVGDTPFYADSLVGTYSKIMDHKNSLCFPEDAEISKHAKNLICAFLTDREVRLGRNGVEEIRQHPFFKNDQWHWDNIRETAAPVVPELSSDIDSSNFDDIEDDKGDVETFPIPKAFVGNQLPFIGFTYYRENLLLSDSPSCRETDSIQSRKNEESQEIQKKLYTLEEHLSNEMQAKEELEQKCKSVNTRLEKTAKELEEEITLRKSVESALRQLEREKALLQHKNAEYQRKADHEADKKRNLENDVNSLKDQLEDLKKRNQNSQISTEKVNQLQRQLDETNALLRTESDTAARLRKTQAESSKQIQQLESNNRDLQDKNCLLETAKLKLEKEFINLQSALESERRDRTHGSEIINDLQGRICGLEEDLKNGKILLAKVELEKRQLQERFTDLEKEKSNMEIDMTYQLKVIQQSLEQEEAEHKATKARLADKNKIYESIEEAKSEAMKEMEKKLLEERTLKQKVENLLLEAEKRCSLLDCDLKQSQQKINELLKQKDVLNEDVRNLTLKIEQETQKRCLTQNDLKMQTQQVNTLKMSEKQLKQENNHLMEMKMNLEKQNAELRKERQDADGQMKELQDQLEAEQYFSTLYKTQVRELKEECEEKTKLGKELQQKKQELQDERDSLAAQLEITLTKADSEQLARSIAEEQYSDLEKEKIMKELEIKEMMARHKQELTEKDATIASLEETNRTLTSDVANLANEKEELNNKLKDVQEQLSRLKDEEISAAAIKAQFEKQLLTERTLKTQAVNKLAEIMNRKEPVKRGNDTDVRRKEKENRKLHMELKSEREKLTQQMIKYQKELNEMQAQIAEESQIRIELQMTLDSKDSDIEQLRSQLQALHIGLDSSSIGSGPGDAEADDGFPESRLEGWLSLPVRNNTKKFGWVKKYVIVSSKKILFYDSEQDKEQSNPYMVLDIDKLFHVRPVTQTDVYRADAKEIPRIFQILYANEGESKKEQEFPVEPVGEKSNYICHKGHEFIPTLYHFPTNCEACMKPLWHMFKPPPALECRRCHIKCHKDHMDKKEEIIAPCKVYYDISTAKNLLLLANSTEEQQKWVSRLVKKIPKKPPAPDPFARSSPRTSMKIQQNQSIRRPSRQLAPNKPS
UniProt Q63HN8: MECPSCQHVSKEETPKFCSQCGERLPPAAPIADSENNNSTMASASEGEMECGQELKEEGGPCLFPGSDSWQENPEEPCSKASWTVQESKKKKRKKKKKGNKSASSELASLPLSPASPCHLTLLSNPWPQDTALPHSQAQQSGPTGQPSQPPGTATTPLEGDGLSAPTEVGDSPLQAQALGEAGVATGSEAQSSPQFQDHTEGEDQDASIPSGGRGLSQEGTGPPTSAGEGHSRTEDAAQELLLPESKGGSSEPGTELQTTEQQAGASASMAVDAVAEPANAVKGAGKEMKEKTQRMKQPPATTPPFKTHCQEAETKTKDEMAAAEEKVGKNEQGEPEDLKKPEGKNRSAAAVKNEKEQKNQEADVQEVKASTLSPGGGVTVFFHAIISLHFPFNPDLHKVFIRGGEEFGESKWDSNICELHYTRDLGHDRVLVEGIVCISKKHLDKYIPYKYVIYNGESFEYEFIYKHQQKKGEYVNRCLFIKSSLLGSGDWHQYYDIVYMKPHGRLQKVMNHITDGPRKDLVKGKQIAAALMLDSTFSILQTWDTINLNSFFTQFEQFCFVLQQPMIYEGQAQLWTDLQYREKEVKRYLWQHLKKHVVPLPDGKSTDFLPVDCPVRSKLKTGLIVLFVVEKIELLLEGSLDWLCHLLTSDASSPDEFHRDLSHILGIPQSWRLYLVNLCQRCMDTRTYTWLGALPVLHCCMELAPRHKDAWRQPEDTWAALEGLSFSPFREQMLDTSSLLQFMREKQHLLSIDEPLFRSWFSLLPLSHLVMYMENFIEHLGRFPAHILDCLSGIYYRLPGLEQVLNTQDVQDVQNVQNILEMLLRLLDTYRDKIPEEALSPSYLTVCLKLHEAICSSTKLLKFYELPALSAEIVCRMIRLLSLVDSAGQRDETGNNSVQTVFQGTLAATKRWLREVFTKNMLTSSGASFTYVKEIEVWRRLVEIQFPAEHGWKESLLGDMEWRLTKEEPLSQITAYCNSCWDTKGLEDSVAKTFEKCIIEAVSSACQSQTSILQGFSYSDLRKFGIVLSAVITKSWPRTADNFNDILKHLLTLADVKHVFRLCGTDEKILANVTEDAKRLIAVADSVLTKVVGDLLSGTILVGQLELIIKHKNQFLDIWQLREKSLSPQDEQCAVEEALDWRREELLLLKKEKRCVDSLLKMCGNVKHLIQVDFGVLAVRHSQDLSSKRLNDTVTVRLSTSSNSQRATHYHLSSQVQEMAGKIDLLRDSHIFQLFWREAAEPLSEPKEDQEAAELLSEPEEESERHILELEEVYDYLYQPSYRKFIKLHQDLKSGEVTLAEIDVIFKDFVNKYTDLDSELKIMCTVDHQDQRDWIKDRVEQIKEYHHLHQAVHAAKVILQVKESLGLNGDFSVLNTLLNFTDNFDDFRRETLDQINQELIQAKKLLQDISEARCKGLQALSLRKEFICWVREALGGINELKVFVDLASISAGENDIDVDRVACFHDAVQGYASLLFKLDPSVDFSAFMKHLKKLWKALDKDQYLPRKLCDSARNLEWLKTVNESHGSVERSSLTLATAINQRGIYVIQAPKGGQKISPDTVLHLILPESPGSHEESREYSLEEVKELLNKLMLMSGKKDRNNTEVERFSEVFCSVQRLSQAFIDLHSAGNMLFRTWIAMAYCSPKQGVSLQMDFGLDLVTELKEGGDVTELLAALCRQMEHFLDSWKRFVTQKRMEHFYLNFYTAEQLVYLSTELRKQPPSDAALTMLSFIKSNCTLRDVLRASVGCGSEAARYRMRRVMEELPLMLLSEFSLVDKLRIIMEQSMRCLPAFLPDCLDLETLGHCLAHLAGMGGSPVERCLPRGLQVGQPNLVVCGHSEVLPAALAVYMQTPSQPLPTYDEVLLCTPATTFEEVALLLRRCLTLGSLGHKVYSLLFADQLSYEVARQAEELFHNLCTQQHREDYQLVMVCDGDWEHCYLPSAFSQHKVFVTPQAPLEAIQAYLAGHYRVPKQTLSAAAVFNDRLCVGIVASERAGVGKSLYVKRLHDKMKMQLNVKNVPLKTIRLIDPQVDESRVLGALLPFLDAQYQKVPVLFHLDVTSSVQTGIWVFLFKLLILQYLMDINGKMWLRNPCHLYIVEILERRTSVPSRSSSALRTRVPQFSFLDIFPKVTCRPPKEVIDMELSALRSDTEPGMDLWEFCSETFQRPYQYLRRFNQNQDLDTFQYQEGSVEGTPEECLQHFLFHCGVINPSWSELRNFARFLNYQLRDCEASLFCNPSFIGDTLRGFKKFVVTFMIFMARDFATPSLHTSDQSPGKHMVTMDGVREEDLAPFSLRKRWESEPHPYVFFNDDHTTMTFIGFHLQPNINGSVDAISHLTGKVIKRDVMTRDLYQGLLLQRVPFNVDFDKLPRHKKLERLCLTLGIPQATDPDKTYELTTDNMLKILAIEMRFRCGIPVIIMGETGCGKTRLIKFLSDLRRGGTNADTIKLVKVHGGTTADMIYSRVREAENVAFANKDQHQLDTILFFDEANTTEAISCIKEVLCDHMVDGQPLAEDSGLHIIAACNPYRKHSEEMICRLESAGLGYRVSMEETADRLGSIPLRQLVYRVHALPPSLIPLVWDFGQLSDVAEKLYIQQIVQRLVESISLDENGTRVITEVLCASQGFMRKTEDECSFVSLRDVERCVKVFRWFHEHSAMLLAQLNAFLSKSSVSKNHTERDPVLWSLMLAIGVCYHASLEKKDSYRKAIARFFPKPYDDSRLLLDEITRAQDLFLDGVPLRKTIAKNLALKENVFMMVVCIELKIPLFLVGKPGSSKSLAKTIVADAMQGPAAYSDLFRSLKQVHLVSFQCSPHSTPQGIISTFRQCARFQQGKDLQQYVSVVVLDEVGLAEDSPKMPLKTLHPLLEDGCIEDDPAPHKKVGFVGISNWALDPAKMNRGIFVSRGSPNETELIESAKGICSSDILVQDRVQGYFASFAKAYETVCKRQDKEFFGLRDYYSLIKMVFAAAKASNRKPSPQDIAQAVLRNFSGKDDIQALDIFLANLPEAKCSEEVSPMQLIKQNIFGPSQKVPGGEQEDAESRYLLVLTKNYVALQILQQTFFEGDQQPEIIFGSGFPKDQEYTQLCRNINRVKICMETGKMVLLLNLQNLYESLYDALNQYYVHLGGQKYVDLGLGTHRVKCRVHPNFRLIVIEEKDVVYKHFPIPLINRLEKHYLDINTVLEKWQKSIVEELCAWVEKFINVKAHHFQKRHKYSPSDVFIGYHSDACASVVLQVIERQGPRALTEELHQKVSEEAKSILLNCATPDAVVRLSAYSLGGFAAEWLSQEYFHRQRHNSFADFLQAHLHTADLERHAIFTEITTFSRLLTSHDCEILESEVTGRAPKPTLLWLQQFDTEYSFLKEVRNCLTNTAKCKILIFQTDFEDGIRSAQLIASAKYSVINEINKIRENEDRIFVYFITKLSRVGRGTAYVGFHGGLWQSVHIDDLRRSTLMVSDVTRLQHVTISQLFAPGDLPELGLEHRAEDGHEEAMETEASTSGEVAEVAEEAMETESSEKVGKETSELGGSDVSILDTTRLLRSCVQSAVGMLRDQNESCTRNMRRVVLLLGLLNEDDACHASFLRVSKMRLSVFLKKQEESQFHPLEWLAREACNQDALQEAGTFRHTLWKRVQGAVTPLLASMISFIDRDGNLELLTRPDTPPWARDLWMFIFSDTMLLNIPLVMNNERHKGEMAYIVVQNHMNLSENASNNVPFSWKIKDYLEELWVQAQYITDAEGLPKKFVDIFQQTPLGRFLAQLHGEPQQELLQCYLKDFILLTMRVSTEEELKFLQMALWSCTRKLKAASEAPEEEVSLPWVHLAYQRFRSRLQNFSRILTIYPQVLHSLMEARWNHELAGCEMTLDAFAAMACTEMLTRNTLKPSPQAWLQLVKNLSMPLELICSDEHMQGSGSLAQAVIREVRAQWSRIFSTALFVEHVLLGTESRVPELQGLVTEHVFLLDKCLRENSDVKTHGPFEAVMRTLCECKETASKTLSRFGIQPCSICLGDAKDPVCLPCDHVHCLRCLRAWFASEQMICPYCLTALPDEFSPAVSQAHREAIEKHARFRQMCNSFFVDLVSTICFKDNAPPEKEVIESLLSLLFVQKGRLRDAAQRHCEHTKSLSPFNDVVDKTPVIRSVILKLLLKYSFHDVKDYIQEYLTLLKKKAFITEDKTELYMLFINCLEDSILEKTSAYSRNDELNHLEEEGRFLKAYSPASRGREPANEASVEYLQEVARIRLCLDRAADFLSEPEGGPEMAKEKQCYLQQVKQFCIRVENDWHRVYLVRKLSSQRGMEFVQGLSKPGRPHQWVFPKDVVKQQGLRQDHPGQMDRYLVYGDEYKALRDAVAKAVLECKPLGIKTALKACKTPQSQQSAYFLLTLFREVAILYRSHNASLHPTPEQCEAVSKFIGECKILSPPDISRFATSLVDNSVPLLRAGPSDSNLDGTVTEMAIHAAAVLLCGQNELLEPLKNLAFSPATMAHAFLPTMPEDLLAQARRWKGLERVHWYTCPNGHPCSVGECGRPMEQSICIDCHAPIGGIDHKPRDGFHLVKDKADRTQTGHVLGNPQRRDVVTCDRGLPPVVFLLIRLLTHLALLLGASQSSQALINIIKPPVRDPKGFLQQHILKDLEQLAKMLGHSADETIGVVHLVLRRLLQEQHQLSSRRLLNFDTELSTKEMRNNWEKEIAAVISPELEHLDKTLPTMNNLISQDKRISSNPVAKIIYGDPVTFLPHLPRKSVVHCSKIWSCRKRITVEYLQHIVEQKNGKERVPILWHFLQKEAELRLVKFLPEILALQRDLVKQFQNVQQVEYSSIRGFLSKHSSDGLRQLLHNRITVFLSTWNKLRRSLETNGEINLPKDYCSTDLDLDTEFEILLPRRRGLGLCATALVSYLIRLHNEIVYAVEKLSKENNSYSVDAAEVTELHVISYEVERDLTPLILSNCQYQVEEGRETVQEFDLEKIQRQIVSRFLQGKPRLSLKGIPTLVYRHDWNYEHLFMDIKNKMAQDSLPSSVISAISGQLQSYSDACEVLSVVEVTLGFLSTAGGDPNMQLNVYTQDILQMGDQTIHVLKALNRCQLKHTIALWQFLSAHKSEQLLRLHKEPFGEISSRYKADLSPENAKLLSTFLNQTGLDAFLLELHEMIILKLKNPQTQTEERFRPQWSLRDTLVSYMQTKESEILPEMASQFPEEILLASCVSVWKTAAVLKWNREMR

The record followed here is the supplement of paper PMC12067093, “Discovery and optimisation of a covalent ligand for TRIM25 and its application to targeted protein ubiquitination” (Chemical Science, 2025).

Compound in the test: Cc1cc(ccc1-c1ccccc1)C(=O)N1CCCN(CC1)C(=O)CCl [compound 10]
In words: probe-labelled cysteine peptide fold change vs DMSO (competition) (log2 fold change); higher = less target engagement (more negative = stronger competition). As to conditions: THP-1, incubation time: 4 h.
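Note: competitive profiling in live THP-1 cells: cysteine peptides tagged with an iodoacetamide desthiobiotin (IA-DTB) probe, intensity after compound treatment relative to DMSO-treated cells.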

“RNH1_P13489_209+216_LESCGVTSDNCR (UniProt P13489)”: the “probe-labelled cysteine peptide fold change” value is -0.308 (10 µM) and -0.396 (50 µM).

“ROCK2_O75116_1293_PLWHMFKPPPALECR (UniProt O75116)”: the “probe-labelled cysteine peptide fold change” value by setting is: (10 µM) -0.152; (50 µM) -0.362.

Consider “RNF213_Q63HN8_3554_DQNESCTR (UniProt Q63HN8)”, for which the “probe-labelled cysteine peptide fold change” value runs as follows: (10 µM) -0.169; (50 µM) -0.368.
